These are yes or no findings as the source states them, for the method shown. Some results given as binding are weak or reduced against the parent protein; the word gives no strength.

Protein sequences, listed by entry. Tags and fused reporters are not part of them. Residues count along the entry.
UniProt P35225, residues 35-146: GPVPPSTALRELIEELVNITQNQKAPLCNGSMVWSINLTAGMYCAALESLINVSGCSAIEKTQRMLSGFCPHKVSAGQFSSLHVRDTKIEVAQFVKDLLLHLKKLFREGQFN

Test [1] deals with T1, Recombinant Human IL-17 (human, UniProt Q16552 20-155, limits assumed).
T1 sequence (looked up): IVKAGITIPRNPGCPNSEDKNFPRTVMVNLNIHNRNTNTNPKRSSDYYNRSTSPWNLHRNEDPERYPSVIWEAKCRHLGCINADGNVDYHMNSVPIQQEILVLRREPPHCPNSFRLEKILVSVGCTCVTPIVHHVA
As to the kind of experiment: SPR (Biacore). In short, it runs like this:
(§1)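 Antibodies or DVD-Ig captured on anti-mouse IgG (Fcγ) CM5 surface; antigen injected at 10–200 nM in HBS-EP, pH 7.4, 25 °C, 25 µL/min. kon and koff from global 1:1 Langmuir fit; KD = koff/kon.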
A general note: SPR reads the build-up and loss of mass on a sensor chip optically.

Test [2] has as its target Recombinant Human IL-13 (human, UniProt P35225 35-146, limits assumed). As to the kind of experiment: SPR (Biacore). An outline of the steps:
as §1

B1: DVD2200 (bispecific antibody)
VH: EVQLVQSGAEVKKPGASVKVSCKASGYTFTSYWMHWVRQAPGQGLEWIGNINPKGGSNIYNEKFQGRVTMTRDTSISTAYMELSRLRSDDTAVYYCARLDYFGDSFDLWGQGTTVTVSSASTKGPSVFPLAPEVQLVQSGAEVKKPGESVKISCKASGGSFRSYGISWVRQAPGQGLEWMGGITHFFGITDYAQKFQGRVTITADESTTTAYMELSGLTSDDTAVYYCAREPNDFWNGYYDTHDFDSWGQGTTVTVSS
VL: DIQMTQSPSSLSASVGDRVTITCRASQGIRNYLNWYQQKPGKAPKLLIYYASNLEVGVPSRFSGSGSGTDYTLTISSLQPEDFATYYCQQDNRFPYTFGGGTKVEIKRTVAAPEIVLTQSPDFQSVTPKEKVTITCRASQNIGSELHWYQQKPDQSPKLLIKYASHSISGVPSRFSGSGSGTDFTLTINGLEAEDAATYYCHQSDTLPHTFGQGTKVDIKR
notes: DVD-Ig; also called DVD2200H; DVD2200L
B1: the binding result in test [1] and in test [2] was “binds” throughout.

B2: DVD2201 (bispecific antibody)
VH: EVQLVQSGAEVKKPGESVKISCKASGGSFRSYGISWVRQAPGQGLEWMGGITHFFGITDYAQKFQGRVTITADESTTTAYMELSGLTSDDTAVYYCAREPNDFWNGYYDTHDFDSWGQGTTVTVSSASTKGPSVFPLAPEVQLVQSGAEVKKPGASVKVSCKASGYTFTSYWMHWVRQAPGQGLEWIGNINPKGGSNIYNEKFQGRVTMTRDTSISTAYMELSRLRSDDTAVYYCARLDYFGDSFDLWGQGTTVTVSS
VL: EIVLTQSPDFQSVTPKEKVTITCRASQNIGSELHWYQQKPDQSPKLLIKYASHSISGVPSRFSGSGSGTDFTLTINGLEAEDAATYYCHQSDTLPHTFGQGTKVDIKRTVAAPDIQMTQSPSSLSASVGDRVTITCRASQGIRNYLNWYQQKPGKAPKLLIYYASNLEVGVPSRFSGSGSGTDYTLTISSLQPEDFATYYCQQDNRFPYTFGGGTKVEIKR
notes: DVD-Ig; also called DVD2201H; DVD2201L
On to B2, for which the binding result in test [1] and in test [2] was “binds” throughout.

B3: DVD2199 (bispecific antibody)
VH: EVQLVQSGAEVKKPGESVKISCKASGGSFRSYGISWVRQAPGQGLEWMGGITHFFGITDYAQKFQGRVTITADESTTTAYMELSGLTSDDTAVYYCAREPNDFWNGYYDTHDFDSWGQGTTVTVSSASTKGPEVQLVQSGAEVKKPGASVKVSCKASGYTFTSYWMHWVRQAPGQGLEWIGNINPKGGSNIYNEKFQGRVTMTRDTSISTAYMELSRLRSDDTAVYYCARLDYFGDSFDLWGQGTTVTVSS
VL: EIVLTQSPDFQSVTPKEKVTITCRASQNIGSELHWYQQKPDQSPKLLIKYASHSISGVPSRFSGSGSGTDFTLTINGLEAEDAATYYCHQSDTLPHTFGQGTKVDIKRTVAAPSVFIFPPDIQMTQSPSSLSASVGDRVTITCRASQGIRNYLNWYQQKPGKAPKLLIYYASNLEVGVPSRFSGSGSGTDYTLTISSLQPEDFATYYCQQDNRFPYTFGGGTKVEIKR
notes: DVD-Ig; also called DVD2199H; DVD2199L
Take B3: the binding entry in test [1] and in test [2] was “binds” each time.

The values above are taken from patent US20130236458A1 (AbbVie / Abbott, published 2013).
